# Measurements published in patent US20250017915A1, “METHOD OF TREATING CANCER ASSOCIATED WITH RAS MUTATION” (The Board of Trustees of the University of Illinois, priority 2021, published 2025).
# At least one compound was matched to its structure with a doubt left.
# How the values were obtained:
# [1] = test system: Panc1 cells; assay: Western blot, Panc1; type: cell-based, human
# Method: Cell or tissue lysates were lysed in RIPA buffer (Cell Signaling) followed by sonication. Equal amounts of protein (15-50 μg) were mixed with loading dye, boiled for 8 min, separated on a 4-20% denaturing SDS-PAGE gel and transferred to a PVDF membrane. The membrane was blocked in 5% milk/TBS/0.1% Tween for one hour and incubated with antibodies against pRB, pMEK1, MEK1, pERK1/2, ERK1/2, (Cell Signaling, Danvers, MA), H3K27ac (Active Motif, Carlsbad, CA), KRAS (Novus Bio, Saint Charles, MO), BRD4, EP300 (abcam, Cambridge, MA), or GAPDH (Santa Cruz Biotech, Santa Cruz, CA). The membrane was washed with TBS-0.1% Tween and then incubated with HRP conjugated secondary antibody (Cell Signaling) at room temperature for one hour and rewashed. Protein bands were visualized by an enhanced chemiluminescence method (Thermo Fischer, Waltham, MA) and resolved digitally per the manufacturer's specifications.
# Using these same lysates, we also evaluated the association between BRD4 and EP300/CBP by immunoprecipitation.
# [2] = test system: Pdx1-Cre×LSL-Kras^G12D×LSL-TP53^R172H+/− (KPC) mice; assay: KPC mouse model of invasive PDAC, survival and endpoint tissue analysis; type: in vivo
# Source text: Nongenic B6 (Wild Type), P48-Cre×LSL-Kras^G12D (KC), Pdx1-Cre×LSL-Kras^G12D×LSL-TP53^R172H+/− (KPC), and Pdx1-Cre×LSL-Kras^G12D×LSL-TP53^R172H+/+ (KPPC) mice were generated as described previously (24). […] Mice were euthanized at 6 months of age and tissues collected for analysis. […] KPC mice were sacrificed when moribund or showing clear signs of health decline e.g. fur loss, weight loss, or lethargy, or for non-survival studies at the fixed endpoint shown in the number of days after enrollment. For studies involving KPPC mice, animals were enrolled either when developing a 0.5 cm, palpable tumor or at 4 weeks of age. […] For euthanasia, animals were deeply anesthetized with isoflurane until unresponsive to toe tap and/or agonal breathing was observed. Thoracotomy served as the primary method of euthanasia and exsanguination the secondary method. For all mouse studies, mice were age matched within 2 weeks and males and females randomized at a 50:50 ratio.
# Using these mice, we first conducted an early intervention study in which mice were allowed to develop overt PDAC for a minimum of 15 weeks, at which point 100% of mice in our colony develop focal PDAC. At this time, mice were then randomized at a 50:50 male to female ratio into one of two treatment groups (N=7/group). […]
smiles,measurement,setting,value
CCS(=O)(=O)Nc1cc(-c2cn(C)c3c(=O)[nH]ccc23)cc2c1ccn2C(C)(c1ccccn1)c1ccccn1 [XP-524],KRAS expression and MEK/ERK activation,[1],significant reduction in KRAS expression as well as MEK/ERK activation
same,effect on survival,[2],significantly delayed mortality
same,lymphocyte / CD3+ T-cell infiltration,[2]; tumor histology,consistent increase in lymphocyte infiltration
